# In patent US6714815B2, “Method for the iontophoretic non-invasive determination of the in vivo concentration level of an inorganic or organic substance” (The Regents of the University of California, priority 1988, dated 2004):
# Method: Drugs—Clonidine HCl (Sigma Chemical Co., St. Louis, Mo.); Clonidine-HCl (phenyl-4-^3H) of specific activity 90 mCi/mg (Amersham, Arlington Heights, Ill.). […] The non-labelled drugs were dissolved in deionized water to form solutions of 1 mg/ml, with enough labelled drug to achieve an activity of approximately […].
# Skin (13)—Full-thickness skin, freshly excised from 11-15 week old female hairless mice (strain Skh:HR-1, Simonsen Laboratory, Gilroy, Calif.).
# Testing of the Modeling Cell—The diffusion cell 10 was tested in three ways:
# (1) Leakage tests (without current) using dye and silicone rubber than skin; (2) leakage tests using dye and skin (without current); and (3) iontophoretic tests using the drug solutions and skin (with and without current). Procedures (1) and (2) were evaluated by visually inspecting the cell. For procedure (3), 0.6 ml of labelled drug solution was placed in chamber 16A, 0.6 ml of buffered saline was pipetted into chamber 16C, and a constant current of 0.63 mA/cm^2 (with the voltage limited at 9 V) was imposed between the electrodes in the two chambers. The activity of the solutions in chambers 16A and 16C was determined before and after iontophoresis. The activity of the skin 13 and of the samples taken from the receptor chamber was determined post-experimentally. Each experiment lasts approximately 24 hours, ±2 hours, with samples collected hourly. Receptor fluid 17 was magnetically stirred (27), and the collection flow rate was 10 ml/hr. Each procedure was, repeated three times.
smiles,measurement,setting,value
"CN1CC[C@]23c4c5ccc(O)c4O[C@H]2[C@@H](O)C=C[C@H]3[C@H]1C5.O=S(=O)(O)O [morphine sulfate, Morphine sulfate]",labelled drug detected in the buffered saline of chamber 16C,"current applied (0.63 mA/cm^2), approximately 20 hours",1 µg
same,rate of penetration through the skin,"current of 0.63 mA/cm^2, drug 1 mg/ml in chamber 16A",2.0 μg/cm^2/hr
same,drug in the buffered saline of chamber 16C,"no current applied, after 20 hours",no drug was found
same,mean rate of diffusion into the receptor phase (passive transport rate),"no current applied, drug 1 mg/ml in chamber 16A",0.04 μg/cm^2/hr
